For at least one compound, name, drawing or mass did not settle the structure.
System: 4-4-20 anti-fluorescein scFv mutant 4M1.1, yeast surface displayed Aga2p fusion
Test: Competitive dissociation of labeled antigen from yeast surface displayed scFv, followed by flow cytometry
Format: binding
Settings: 23° C., 5-aminofluorescein as competitor

SMILES: O=C(CCCCCNC(=O)CCCC[C@@H]1SC[C@@H]2NC(=O)N[C@@H]21)NCCCCCNC(=S)Nc1ccc2c(c1)C(=O)OC21c2ccc(O)cc2Oc2cc(O)ccc21 [fluorescein-biotin]
- koff for fluorescein-biotin: 2.4×110^-3 sec^-1
